In paper PMC12499470:
Results are given in words; binding and its absence hold for the method and conditions named. For part of these data: In cells and extracts the contact can be indirect. Some binding calls cover weakened binding; strength is not graded here. Tags and fused reporters may be left off the sequences shown.

How the values were obtained:
[1] = molecular target: T1, HSL 1-343-FLAG (tissue specific additional N-terminal domain of HSL) (human) (UniProt Q05469); experiment: co-IP; HEK293T cells co-transfected with HA- and FLAG-tagged constructs, lysates after 48 h, immunoprecipitation with EZview Red anti-FLAG M2 affinity gel, Western blot
T1 sequence: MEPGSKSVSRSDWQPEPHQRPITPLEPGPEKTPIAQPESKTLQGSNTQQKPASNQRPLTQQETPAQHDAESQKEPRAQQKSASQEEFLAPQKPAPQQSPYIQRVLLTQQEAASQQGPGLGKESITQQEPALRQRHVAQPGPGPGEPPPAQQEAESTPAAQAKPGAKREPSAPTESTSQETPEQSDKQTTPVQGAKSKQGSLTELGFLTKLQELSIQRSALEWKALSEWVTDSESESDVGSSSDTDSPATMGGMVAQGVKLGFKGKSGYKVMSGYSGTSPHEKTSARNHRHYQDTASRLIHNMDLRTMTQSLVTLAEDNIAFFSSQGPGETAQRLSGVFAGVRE

[2] = molecular target: T2, HSL 344-665-FLAG (N-terminal domain of HSL) (human) (UniProt Q05469); experiment: as above
T2 sequence: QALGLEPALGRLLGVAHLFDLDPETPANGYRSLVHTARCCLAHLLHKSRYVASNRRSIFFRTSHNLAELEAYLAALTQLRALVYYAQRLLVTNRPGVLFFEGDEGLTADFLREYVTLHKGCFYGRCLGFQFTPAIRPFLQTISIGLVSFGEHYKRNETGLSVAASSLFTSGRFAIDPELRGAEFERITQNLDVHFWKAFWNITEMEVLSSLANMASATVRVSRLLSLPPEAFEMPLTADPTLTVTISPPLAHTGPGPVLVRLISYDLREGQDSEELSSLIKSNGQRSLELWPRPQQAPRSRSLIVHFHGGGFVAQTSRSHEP

[3] = molecular target: T3, HSL 666-1076-FLAG (regulatory domain of HSL) (human) (UniProt Q05469); experiment: as above
T3 sequence: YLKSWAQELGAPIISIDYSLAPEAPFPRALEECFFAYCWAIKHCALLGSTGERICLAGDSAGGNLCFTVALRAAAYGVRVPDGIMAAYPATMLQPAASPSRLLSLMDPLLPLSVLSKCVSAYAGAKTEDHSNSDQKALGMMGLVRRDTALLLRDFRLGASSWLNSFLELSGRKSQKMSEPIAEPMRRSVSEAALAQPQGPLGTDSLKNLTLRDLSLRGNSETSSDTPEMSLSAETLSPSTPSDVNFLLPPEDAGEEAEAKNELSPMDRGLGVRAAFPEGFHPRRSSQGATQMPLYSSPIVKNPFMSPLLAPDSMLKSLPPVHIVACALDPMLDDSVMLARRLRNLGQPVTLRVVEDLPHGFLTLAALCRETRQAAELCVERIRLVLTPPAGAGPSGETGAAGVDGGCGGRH

[4] = molecular target: T4, HSL-FLAG (hormone-sensitive lipase, FLAG-tagged) (human) (UniProt Q05469); experiment: as above
T4 sequence: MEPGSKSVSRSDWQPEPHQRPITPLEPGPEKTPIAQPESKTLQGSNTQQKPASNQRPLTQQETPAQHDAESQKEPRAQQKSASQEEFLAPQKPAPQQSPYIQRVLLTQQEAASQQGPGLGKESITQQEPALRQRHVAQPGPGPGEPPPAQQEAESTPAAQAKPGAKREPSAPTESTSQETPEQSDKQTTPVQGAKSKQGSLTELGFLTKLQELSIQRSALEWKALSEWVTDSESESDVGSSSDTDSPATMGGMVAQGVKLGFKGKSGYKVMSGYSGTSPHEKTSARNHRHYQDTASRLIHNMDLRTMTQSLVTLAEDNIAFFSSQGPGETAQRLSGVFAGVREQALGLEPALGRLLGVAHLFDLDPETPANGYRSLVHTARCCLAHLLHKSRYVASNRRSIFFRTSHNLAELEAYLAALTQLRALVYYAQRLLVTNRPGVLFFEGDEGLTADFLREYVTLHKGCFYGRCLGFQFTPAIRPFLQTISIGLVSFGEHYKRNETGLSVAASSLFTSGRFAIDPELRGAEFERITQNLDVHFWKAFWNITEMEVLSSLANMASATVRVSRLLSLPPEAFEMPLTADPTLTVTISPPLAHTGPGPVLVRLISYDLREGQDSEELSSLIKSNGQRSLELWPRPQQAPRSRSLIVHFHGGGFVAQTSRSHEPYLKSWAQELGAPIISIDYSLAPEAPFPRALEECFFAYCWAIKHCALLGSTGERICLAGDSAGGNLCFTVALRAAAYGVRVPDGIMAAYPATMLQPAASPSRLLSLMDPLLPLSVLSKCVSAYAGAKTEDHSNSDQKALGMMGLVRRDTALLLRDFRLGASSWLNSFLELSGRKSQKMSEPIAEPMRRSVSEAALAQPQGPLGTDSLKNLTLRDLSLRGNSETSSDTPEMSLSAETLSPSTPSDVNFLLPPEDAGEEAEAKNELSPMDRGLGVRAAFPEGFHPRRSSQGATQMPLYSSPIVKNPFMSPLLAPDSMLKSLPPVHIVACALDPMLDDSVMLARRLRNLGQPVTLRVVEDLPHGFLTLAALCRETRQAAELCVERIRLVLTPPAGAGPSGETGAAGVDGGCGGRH

[5] = molecular target: T5, GST-PKGα (recombinant GST-tagged PKGα fusion protein) (UniProt Q13976); experiment: pull-down; 500 ng GST or GST-PKG on GST magnetic beads, incubated with 200 ng recombinant HSL in GST-binding buffer with cGMP (15 µM), 4 °C, 2 h; Western blot; both purified
T5 sequence: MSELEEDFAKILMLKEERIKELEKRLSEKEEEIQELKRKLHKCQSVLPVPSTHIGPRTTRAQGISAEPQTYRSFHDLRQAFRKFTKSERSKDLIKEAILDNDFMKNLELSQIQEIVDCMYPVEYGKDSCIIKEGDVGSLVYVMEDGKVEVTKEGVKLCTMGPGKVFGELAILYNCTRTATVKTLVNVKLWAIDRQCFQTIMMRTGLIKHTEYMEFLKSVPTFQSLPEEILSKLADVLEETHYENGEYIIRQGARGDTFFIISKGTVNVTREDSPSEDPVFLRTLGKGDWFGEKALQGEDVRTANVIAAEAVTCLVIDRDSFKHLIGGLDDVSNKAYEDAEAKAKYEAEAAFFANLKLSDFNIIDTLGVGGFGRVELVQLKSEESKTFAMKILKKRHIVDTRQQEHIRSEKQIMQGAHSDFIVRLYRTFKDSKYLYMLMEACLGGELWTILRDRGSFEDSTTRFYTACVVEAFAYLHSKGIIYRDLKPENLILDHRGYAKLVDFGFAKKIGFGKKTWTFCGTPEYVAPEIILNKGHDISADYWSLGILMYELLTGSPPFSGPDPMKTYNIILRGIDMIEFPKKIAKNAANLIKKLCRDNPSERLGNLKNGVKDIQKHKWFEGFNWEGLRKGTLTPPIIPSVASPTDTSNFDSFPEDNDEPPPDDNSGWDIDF

[6] = molecular target: T5, GST-PKGα (recombinant GST-tagged PKGα fusion protein); experiment: pull-down; 500 ng GST-PKG on GST magnetic beads, incubated with MGC803 or MKN1 cell lysate in GST-binding buffer with cGMP (15 µM), 4 °C, 2 h; Western blot; only the target purified

B1: PKGα-HA (protein kinase cGMP-dependent 1, isoform α, HA-tagged) (enzyme, UniProt Q13976 1-671)
chain: MSELEEDFAKILMLKEERIKELEKRLSEKEEEIQELKRKLHKCQSVLPVPSTHIGPRTTRAQGISAEPQTYRSFHDLRQAFRKFTKSERSKDLIKEAILDNDFMKNLELSQIQEIVDCMYPVEYGKDSCIIKEGDVGSLVYVMEDGKVEVTKEGVKLCTMGPGKVFGELAILYNCTRTATVKTLVNVKLWAIDRQCFQTIMMRTGLIKHTEYMEFLKSVPTFQSLPEEILSKLADVLEETHYENGEYIIRQGARGDTFFIISKGTVNVTREDSPSEDPVFLRTLGKGDWFGEKALQGEDVRTANVIAAEAVTCLVIDRDSFKHLIGGLDDVSNKAYEDAEAKAKYEAEAAFFANLKLSDFNIIDTLGVGGFGRVELVQLKSEESKTFAMKILKKRHIVDTRQQEHIRSEKQIMQGAHSDFIVRLYRTFKDSKYLYMLMEACLGGELWTILRDRGSFEDSTTRFYTACVVEAFAYLHSKGIIYRDLKPENLILDHRGYAKLVDFGFAKKIGFGKKTWTFCGTPEYVAPEIILNKGHDISADYWSLGILMYELLTGSPPFSGPDPMKTYNIILRGIDMIEFPKKIAKNAANLIKKLCRDNPSERLGNLKNGVKDIQKHKWFEGFNWEGLRKGTLTPPIIPSVASPTDTSNFDSFPEDNDEPPPDDNSGWDIDF
[1]
  binding: binds
[2]
  binding: binds
[3]
  binding: binds weakly
[4]
  binding: binds

B2: HSL-HIS (recombinant hormone-sensitive lipase, His-tagged) (enzyme, UniProt Q05469 1-1076)
chain: MEPGSKSVSRSDWQPEPHQRPITPLEPGPEKTPIAQPESKTLQGSNTQQKPASNQRPLTQQETPAQHDAESQKEPRAQQKSASQEEFLAPQKPAPQQSPYIQRVLLTQQEAASQQGPGLGKESITQQEPALRQRHVAQPGPGPGEPPPAQQEAESTPAAQAKPGAKREPSAPTESTSQETPEQSDKQTTPVQGAKSKQGSLTELGFLTKLQELSIQRSALEWKALSEWVTDSESESDVGSSSDTDSPATMGGMVAQGVKLGFKGKSGYKVMSGYSGTSPHEKTSARNHRHYQDTASRLIHNMDLRTMTQSLVTLAEDNIAFFSSQGPGETAQRLSGVFAGVREQALGLEPALGRLLGVAHLFDLDPETPANGYRSLVHTARCCLAHLLHKSRYVASNRRSIFFRTSHNLAELEAYLAALTQLRALVYYAQRLLVTNRPGVLFFEGDEGLTADFLREYVTLHKGCFYGRCLGFQFTPAIRPFLQTISIGLVSFGEHYKRNETGLSVAASSLFTSGRFAIDPELRGAEFERITQNLDVHFWKAFWNITEMEVLSSLANMASATVRVSRLLSLPPEAFEMPLTADPTLTVTISPPLAHTGPGPVLVRLISYDLREGQDSEELSSLIKSNGQRSLELWPRPQQAPRSRSLIVHFHGGGFVAQTSRSHEPYLKSWAQELGAPIISIDYSLAPEAPFPRALEECFFAYCWAIKHCALLGSTGERICLAGDSAGGNLCFTVALRAAAYGVRVPDGIMAAYPATMLQPAASPSRLLSLMDPLLPLSVLSKCVSAYAGAKTEDHSNSDQKALGMMGLVRRDTALLLRDFRLGASSWLNSFLELSGRKSQKMSEPIAEPMRRSVSEAALAQPQGPLGTDSLKNLTLRDLSLRGNSETSSDTPEMSLSAETLSPSTPSDVNFLLPPEDAGEEAEAKNELSPMDRGLGVRAAFPEGFHPRRSSQGATQMPLYSSPIVKNPFMSPLLAPDSMLKSLPPVHIVACALDPMLDDSVMLARRLRNLGQPVTLRVVEDLPHGFLTLAALCRETRQAAELCVERIRLVLTPPAGAGPSGETGAAGVDGGCGGRH
[5]
  binding: binds

B3: endogenous HSL (hormone-sensitive lipase) (enzyme, UniProt Q05469 1-1076)
chain: MEPGSKSVSRSDWQPEPHQRPITPLEPGPEKTPIAQPESKTLQGSNTQQKPASNQRPLTQQETPAQHDAESQKEPRAQQKSASQEEFLAPQKPAPQQSPYIQRVLLTQQEAASQQGPGLGKESITQQEPALRQRHVAQPGPGPGEPPPAQQEAESTPAAQAKPGAKREPSAPTESTSQETPEQSDKQTTPVQGAKSKQGSLTELGFLTKLQELSIQRSALEWKALSEWVTDSESESDVGSSSDTDSPATMGGMVAQGVKLGFKGKSGYKVMSGYSGTSPHEKTSARNHRHYQDTASRLIHNMDLRTMTQSLVTLAEDNIAFFSSQGPGETAQRLSGVFAGVREQALGLEPALGRLLGVAHLFDLDPETPANGYRSLVHTARCCLAHLLHKSRYVASNRRSIFFRTSHNLAELEAYLAALTQLRALVYYAQRLLVTNRPGVLFFEGDEGLTADFLREYVTLHKGCFYGRCLGFQFTPAIRPFLQTISIGLVSFGEHYKRNETGLSVAASSLFTSGRFAIDPELRGAEFERITQNLDVHFWKAFWNITEMEVLSSLANMASATVRVSRLLSLPPEAFEMPLTADPTLTVTISPPLAHTGPGPVLVRLISYDLREGQDSEELSSLIKSNGQRSLELWPRPQQAPRSRSLIVHFHGGGFVAQTSRSHEPYLKSWAQELGAPIISIDYSLAPEAPFPRALEECFFAYCWAIKHCALLGSTGERICLAGDSAGGNLCFTVALRAAAYGVRVPDGIMAAYPATMLQPAASPSRLLSLMDPLLPLSVLSKCVSAYAGAKTEDHSNSDQKALGMMGLVRRDTALLLRDFRLGASSWLNSFLELSGRKSQKMSEPIAEPMRRSVSEAALAQPQGPLGTDSLKNLTLRDLSLRGNSETSSDTPEMSLSAETLSPSTPSDVNFLLPPEDAGEEAEAKNELSPMDRGLGVRAAFPEGFHPRRSSQGATQMPLYSSPIVKNPFMSPLLAPDSMLKSLPPVHIVACALDPMLDDSVMLARRLRNLGQPVTLRVVEDLPHGFLTLAALCRETRQAAELCVERIRLVLTPPAGAGPSGETGAAGVDGGCGGRH
[6]
  binding: binds
